This passage reports binding results from patent publication US20220119522A1.

Substitutions are numbered along the chain they refer to. No constants are given. Whether binding was seen depends on the method and setting. For some assays here: A result given as binding can be weak or reduced; the word gives no strength.

Experiment [1] addresses recombinant cynomolgus TREM2 ECD (cynomolgus). The experiment is described as follows: SPR (Biacore), antibody captured via anti-human Fab, recombinant cynomolgus TREM2 injected. On the technique in general: In SPR one partner is held on a chip, and binding of the other changes the refractive index at the surface.
Experiment [2] has the same target. The experiment is described as follows: SPR (Biacore).
Experiment [3] deals with cynomolgus soluble TREM2 (sTREM2) (cynomolgus). As to the kind of experiment: MSD assay: sTREM2 captured from healthy cynomolgus CSF, sulfo-tagged antibody titrated.

B1: CL0020141 (antibody, V domains shown)
VH: EVTLVESGGGLVQPGGSLRLSCATSGFTFTDYYMSWVRQPPGKALEWLGFIRDKANGYTTDYSASVKGRFTISRDNSQNILYLQMNTLRAEDSATYYCSRLLRAQGFAYWGQGTLVTVSA
VL: DIVMSQSPSSLGVSIGEKVIMSCTSGQSLLYSNNQKNYLAWYQQKPGQSPKLLIYWASTRESGVPDRFTGSGSGTDFTLTINSVKAEDLAVYYCQQYYRNPFTFGSGTKLEIK
As to B1, the binding entry in experiment [1] was “no binding”.

B2: CL0020188-4 (antibody, V domains shown)
VH: EVQLVESGGGLVQPGGSLRLSCAGSGFTFTDFYMSWVRQAPGKGPEWLSVIRNKANGYTAGYNPSVKGRFTISRDNSKNTLYLQMNSLRAEDTAVYYCARLTYGFDYWGQGTLVTVSS
VL: DIVMTQTPLSLPVTPGEPASISCQSSKSLLHSTGKTYLNWYLQKPGQSPQLLIYWMSTRASGVPDRFSGSGSGTDFTLKISRVEAEDVGVYYCQQFLEYPFTFGQGTKVEIK
As for B2, the binding result in experiment [2] and in experiment [3] was “binds” in each case.

B3: CL0020188-7 (antibody, V domains shown)
VH: B2 VH with G24A, P45L, L48V, G57A
VL: B2 VL
B3: the binding entry in experiment [2] and in experiment [3] was “binds” in each case.
